The values are deposited in ChEMBL (CHEMBL3988442, “University of Dundee, Small-Polar-MMV Screening Library” (2021)).

The filed quantity is “Percent Effect” (%). The controls that fix the scale are not given in the record; negative values are as filed. Compounds were drawn at random from those tested, without regard to their results. A dash means the value is not listed here; it may have been measured.

Toxoplasma: 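Assay of Toxoplasma gondii numbers, read through their beta-galactosidase reporter with a colour substrate. Concentration: 10 µM. Higher reads as fewer parasites (inferred from which compounds were picked for retests). Size under these conditions: about 67,000 compounds, about 260 of them at 50% or above in at least one test.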
T. brucei: 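Whole-parasite assay of Trypanosoma brucei over 72 hours; the read-out is not stated. Tested at 30 µM. Direction is inferred from retests: higher values go with stronger inhibition. Values scatter widely below zero; nearly all retest evidence comes from the higher of the two concentrations used. Of about 64,000 compounds tested this way, about 940 (1.5%) reached 50% or more in at least one test.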

compound	Toxoplasma	T. brucei
CC(C)Oc1cccc(C(O)CNC(=O)Nc2cccs2)c1 (centres unmarked)	5.184%	-38.53%
CC(C)CN1CC(C(=O)NCCOc2ccc3c(c2)OCO3)CC1=O (centres unmarked)	-1.831%	0.1326%
Cc1cc(C)n(CC(=O)N2CCC(Nc3cccnn3)CC2)n1	15.83%	-
Cc1ccc(CNC(=O)Nc2nncs2)cn1	-2.757%	-
COCCN(Cc1ccc(F)cc1Cl)C(=O)c1ccc(=O)[nH]n1	1.338%	1.213%
Cc1cn[nH]c1C1CCCCN1C(=O)CCN1CCCCCC1 (centres unmarked)	-7.698%	-25.19%
Cc1ccc(C(=O)N2CCC3(CC2)CCN(CCN(C)C)C3=O)cn1.O=C(O)C(F)(F)F.O=C(O)C(F)(F)F	3.907%	-7.554%
CCC[C@@H]1CN(C(=O)c2cc3ccccc3s2)C[C@H]1NS(C)(=O)=O	15.6%	55.32%
Cc1sc2ncnc(N3CCC(N(C)Cc4cnn(C)c4)CC3)c2c1C	0.8136%	-7.432%
CC(C)c1nc(CN2CCCCC2)cs1	-10.81%	11.44%
Cc1ccc(S(=O)(=O)NC2CC2)cc1C	10%	-30.61%
CC(C)N(C)Cc1cncc2c1CCN(C(=O)c1ccccc1F)C2.Cl.Cl	-15.69%	-27.97%
Cc1cc(C(F)(F)F)nn1CC(C)C(=O)Nc1ccccn1 (centres unmarked)	5.589%	13.6%
CS(=O)(=O)Cc1ccc(CNc2ncc(C#N)cc2Cl)cc1	-12.19%	-2.72%
CN(Cc1cccc(C(=O)Nc2ccnn2C)c1)CC1(C)COC1	2.857%	-6.951%
O=C(CCCn1cncn1)N1CCC2(CCCN(CC3CC3)C2=O)C1 (centres unmarked)	2.024%	-32.84%
CC(C)(C)n1ncc2c1CCCC2NCc1ccsc1 (centres unmarked)	4.385%	-15.69%
CS(=O)(=O)N[C@@H]1CCN(Cc2cccnc2)[C@H]1Cc1cccnc1	-7.025%	-11.93%
CCC(NC(=O)C1CCN(S(=O)(=O)N(C)C)CC1)c1ccc(C)c(C)c1 (centres unmarked)	4.298%	-11.79%
O=C(O)C(F)(F)F.[H][C@@]12CCCO[C@]1([H])[C@H](N(CC)CC)CN2C(=O)c1ccnnc1	4.202%	-30.64%
CC1CS(=O)(=O)CCN1Cc1ccccc1OCC(F)(F)F (centres unmarked)	-15.22%	-16.46%
CN(Cc1cccc(O)c1)CC1CCCN(CCc2ccc(Cl)cc2)C1 (centres unmarked)	6.433%	55.85%
O=C(O)C(F)(F)F.O=S(=O)(NC1CCC12CCN(CC1CC1)CC2)c1ccccc1 (centres unmarked)	-0.5933%	-43.56%
CC(C)c1nc(CN(C)C(=O)C2CC(=O)N(Cc3ccncc3)C2)cs1 (centres unmarked)	-17.57%	-65.75%
O=C(Cc1ccccc1C(F)(F)F)N1CCC2(CC1)[C@H](O)C[C@@H]2O	-9.451%	-16.86%
CCCC(C#N)NC(=O)CCCOc1cccc(F)c1 (centres unmarked)	1.509%	-48.83%
O=C(O)CC(O)(CC(=O)O)C(=O)O.c1cncc(-c2nccc(CN3CCC(N4CCCCC4)CC3)n2)c1	4.464%	-30.51%
CN(C)C(=O)COC1COC2(CCN(c3cccc(F)c3)CC2)C1.O=C(O)C(F)(F)F (centres unmarked)	5.003%	-3.422%
O=C1OC2(CCNCC2)CN1CC(=O)N1CCCC1c1nccs1 (centres unmarked)	-3.768%	1.387%
CC(c1cc(F)ccc1F)N(C)CCS(=O)(=O)CCC(N)=O (centres unmarked)	-4.139%	-
COCc1cc(N(C)Cc2ncnn2C)nc(C(C)(C)C)n1	1.063%	-5.705%
CC(C)NC(=O)C1CCC2(CCN(Cc3cnn(C)c3)CC2)C1.O=C(O)C(F)(F)F (centres unmarked)	-2.38%	-8.83%
O=C(O)CNC(=O)Cc1csc(-c2ccccc2F)n1	-	-44.13%
CCCn1ncc(C(=O)N2CCCC(OCc3ccccn3)C2)c1C (centres unmarked)	8.927%	-48.37%
COc1cc(CNC(C)Cn2cccn2)cc(OC)c1 (centres unmarked)	-5.776%	5.151%
O=C(NCC1CCOC1)Nc1ccc(Oc2cccc(F)c2)nc1 (centres unmarked)	6.26%	19.15%
CCc1ccc(C(=O)NCc2ccnc(N3CCN(C)CC3)c2)o1	-14.77%	-
Cc1cccc(-c2noc([C@@H]3C[C@@H](O)CN3C3CCOCC3)n2)c1	-0.4901%	-8.814%
c1cnn(CC2CN(CCCOc3ccc4c(c3)OCO4)CCO2)c1 (centres unmarked)	-19.58%	-47.14%
CCN1CCN(C(=O)c2cnn(-c3ccccc3Cl)c2)CC1	3.504%	-16.95%
Cn1cc(C[C@H]2[C@H](O)CCN2Cc2ccc(F)cc2)cn1.O=C(O)C(F)(F)F	19.91%	-195.6%
CN(C)c1nc2c(c(N(C)C)n1)CCN(C(=O)CN1CCC(O)CC1)C2	-	-26.99%
COCc1noc(Cn2ccc3ncccc3c2=O)n1	18.66%	-2.657%
CN1CCC(NC(=O)Nc2ccc(Cl)c(F)c2)C1=O (centres unmarked)	-6.843%	-15.42%
CSC(C)C(=O)Nc1ccnn1-c1ccccc1C (centres unmarked)	5.964%	-59.1%
O=C(CCc1ccccc1Br)NCC(=O)NCc1ccccc1	-0.7928%	-16.32%
CC(Nc1cccc(CN2CCOC2=O)c1)C(=O)NC(N)=O (centres unmarked)	26.09%	-10.68%
Cc1cncc(C2CCCN(C(=O)c3cn(C)nc3C)C2)n1 (centres unmarked)	1.523%	7.136%
CCn1ncc2c1C(COC)CN(c1ncc(F)cn1)C2.O=C(O)C(F)(F)F.O=C(O)C(F)(F)F (centres unmarked)	-16.46%	20.94%